Reference: patent publication US20230321189A1, “THERAPEUTIC AGENTS, PHARMACEUTICAL COMPOSITIONS, AND ASSOCIATED BIOMARKERS BASED ON TRK-B” (INSTITUTO DE MEDICINA MOLECULAR JOÃO LOBO ANTUNES, priority 2020, published 2023)
“Also recorded” adds a separate entry of the source. At least one peptide structure holds a part that was inferred or is arguable (an end, a ring closure or a residue). Where no end group is shown, it is not given here.

Sequences of proteins named here, by UniProt entry; tags and fusion partners are left off. Residues count along the entry.
UniProt P15209, 32-821: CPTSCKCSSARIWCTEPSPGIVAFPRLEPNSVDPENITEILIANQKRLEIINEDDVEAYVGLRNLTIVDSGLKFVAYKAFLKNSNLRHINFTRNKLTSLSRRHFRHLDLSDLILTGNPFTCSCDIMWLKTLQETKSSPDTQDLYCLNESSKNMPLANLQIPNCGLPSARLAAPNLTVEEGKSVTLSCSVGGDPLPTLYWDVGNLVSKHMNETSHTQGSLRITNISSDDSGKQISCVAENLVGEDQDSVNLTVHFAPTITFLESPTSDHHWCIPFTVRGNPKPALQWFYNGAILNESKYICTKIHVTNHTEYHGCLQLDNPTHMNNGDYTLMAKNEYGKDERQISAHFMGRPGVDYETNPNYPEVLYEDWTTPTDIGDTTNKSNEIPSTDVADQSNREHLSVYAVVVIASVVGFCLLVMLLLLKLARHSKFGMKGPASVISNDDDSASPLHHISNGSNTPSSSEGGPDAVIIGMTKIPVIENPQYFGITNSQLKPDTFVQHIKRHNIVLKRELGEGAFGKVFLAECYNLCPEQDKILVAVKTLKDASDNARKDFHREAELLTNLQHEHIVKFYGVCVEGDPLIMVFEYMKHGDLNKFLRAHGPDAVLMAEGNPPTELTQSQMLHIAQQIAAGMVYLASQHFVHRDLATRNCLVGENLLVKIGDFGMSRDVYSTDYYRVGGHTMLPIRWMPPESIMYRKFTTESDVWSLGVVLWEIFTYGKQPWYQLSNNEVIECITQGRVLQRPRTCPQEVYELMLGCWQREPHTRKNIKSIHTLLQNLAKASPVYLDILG

Tests used:
[1] = tested on: 5×FAD (Alzheimer's disease mouse model); assay: In vivo pilot study, Morris Water Maze test; settings: 5×FAD mice; intraperitoneal, 5 times/week, 10 consecutive weeks; vs vehicle-treated
TrkB-FL = molecular target: T1, TrkB-FL (Mus musculus, UniProt P15209); assay: In vivo pilot study, hippocampal TrkB-FL levels by WB; settings: 5×FAD transgenic mice; intraperitoneal, 5 times/week, 10 consecutive weeks
T1 construct: the inventors quantified TrkB-FL cleavage by WB analysis, using hippocampal tissue; from tissue; host or cells: hippocampus of wild-type and 5xFAD mice

hippocampal slices [2] = assay: LTP saturation (three θ-bursts 1 h apart) in hippocampal slices; format: cell-based, rat
hippocampal synaptosomes = assay: [3H]glutamate release from hippocampal synaptosomes; format: cell-based, rat; settings: BDNF 30 ng/ml
Description: Isolation of Synaptosomes. The synaptosomal fraction from rat hippocampi was prepared as routinely in the lab^3. Hippocampal slices (male Wistar rats, 7-10 weeks old) were prepared and treated with vehicle or Aβ1-42, as described above. Then, slices were added to 5 ml of ice-cold isosmotic sucrose solution (0.32 M, containing 1 mM EDTA, 1 mg/ml BSA, 10 mM HEPES, pH 7.4), and homogenized in a Potter-Elvehjem homogenizer with a Teflon piston (four up-and-down strokes) and the volume completed to 10 ml with the sucrose solution. After a first centrifugation at 3,000 g for 10 min (Heraeus sepatech—Biofuge 28RS centrifuge with 3746 rotor), the supernatant was collected and centrifuged at 14,000 g for 12 min. The whole procedure was conducted at 4° C. […]
Calculation of drug effects on glutamate release. At the end of each experiment, aliquots (500 μl) of each sample as well as the filters from each superfusion chamber were analyzed by liquid scintillation counting. The fractional release was expressed as the percentage of total radioactivity present in the synaptosomes at each time point. The amount of radioactivity released by each pulse of K^+ (S1 and S2) was calculated by integration of the area of the peak upon subtraction of the estimated basal tritium release. […]

hippocampal slices [3] = assay: θ-burst Long-Term Potentiation (LTP) in acute hippocampal slices; format: cell-based, rat
Description: Young adult (7-10 weeks old) male Wistar rats were sacrificed by decapitation under deep isoflurane anaesthesia. The brain was quickly removed, hemisected and both hippocampi were dissected free within ice-cold artificial cerebrospinal fluid (aCSF) (mM: NaCl 124; KCl 3; NaH2PO4 1.25; NaHCO326; MgSO4 1; CaCl2 2; and glucose 10), previously gassed with 95% O2 and 5% CO2, pH 7.4.
Slices (400 μm-thick) were cut perpendicularly to the long axis of the hippocampus with a McIlwain tissue chopper and allowed to recover for at least 60 min in a resting chamber, filled with the gassed aCSF, at room temperature (RT) (22-24° C.). […]
Slices were transferred to a submerging chamber (1 ml) and continuously superfused at a3 ml/min rate with gassed aCSF at 32° C. […] Evoked field excitatory postsynaptic potentials (fEPSP) were recorded extracellularly through a microelectrode filled with 4 M NaCl (2-8 MΩ resistance) placed in the stratum radiatum of the CA1 area, as previously described^34,35. […] The averages of eight consecutive fEPSPs were obtained and the slope of the initial phase of the potential was quantified. […]
Long-Term Potentiation induction and saturation. […] LTP magnitude was quantified as the normalized change in the average slope of the fEPSP taken from 50 to 60 min after LTP induction in relation to the average slope of the fEPSP measured during the 10 min that preceded the induction of LTP. […]

YGRKKRRQRRRKKFGITNSQLKP [TAT-TrkB]
learning and memory in Morris Water Maze (escape latency, acquisition phase) [1]: significantly prevent the learning weakening; also recorded: significantly improves the learning and memory | TrkB-FL protein levels in hippocampal tissue (WB) (TrkB-FL): restore TrkB-FL protein levels; also recorded: increases TrkB-FL levels | LTP saturation profile, peptide alone (hippocampal slices [2]; TAT-TrkB 20 μM alone, P>0.05): did not affect the saturation profile | LTP desaturation by Aβ1-42 oligomers (hippocampal slices [2]; co-exposure to Aβ1-42 oligomers 200 nM and TAT-TrkB 20 μM): prevented | BDNF effect on glutamate release, peptide per se (hippocampal synaptosomes; TAT-TrkB 20 μM without Aβ): did not affect BDNF effect | Aβ-driven loss of BDNF effect on glutamate release (hippocampal synaptosomes; TAT-TrkB 20 μM, Aβ oligomers 200 nM, P<0.05): prevented | BDNF effect on LTP, peptide per se (hippocampal slices [3]; TAT-TrkB 20 μM without Aβ, BDNF 30 ng/ml): did not affect BDNF effect | Aβ-driven impairment of LTP (hippocampal slices [3]; TAT-TrkB 20 μM, Aβ oligomers 200 nM): prevented
